Results are given in words; binding and its absence hold for the method and conditions named. Some binding calls cover weakened binding; strength is not graded here.
Tests used:
[1] = biological target: MSH6蛋白 (endogenous, in tissue sections) (UniProt P52701); test: immunohistochemistry, bladder cancer tissue section
[2] = biological target: MSH6蛋白 (endogenous, in tissue sections) (UniProt P52701); test: immunohistochemistry on tissue chips
[3] = biological target: MSH6蛋白 (endogenous, in tissue sections) (UniProt P52701); test: immunohistochemistry on a chip of 30 normal tissues
[4] = biological target: MSH6蛋白 (endogenous, in tissue sections) (UniProt P52701); test: immunohistochemistry, testis tissue section
[5] = biological target: MSH6蛋白 (endogenous, in tissue sections) (UniProt P52701); test: immunohistochemistry, colon cancer tissue section

Sequences of proteins named here, by UniProt entry; tags and fusion partners are left off.
UniProt P52701: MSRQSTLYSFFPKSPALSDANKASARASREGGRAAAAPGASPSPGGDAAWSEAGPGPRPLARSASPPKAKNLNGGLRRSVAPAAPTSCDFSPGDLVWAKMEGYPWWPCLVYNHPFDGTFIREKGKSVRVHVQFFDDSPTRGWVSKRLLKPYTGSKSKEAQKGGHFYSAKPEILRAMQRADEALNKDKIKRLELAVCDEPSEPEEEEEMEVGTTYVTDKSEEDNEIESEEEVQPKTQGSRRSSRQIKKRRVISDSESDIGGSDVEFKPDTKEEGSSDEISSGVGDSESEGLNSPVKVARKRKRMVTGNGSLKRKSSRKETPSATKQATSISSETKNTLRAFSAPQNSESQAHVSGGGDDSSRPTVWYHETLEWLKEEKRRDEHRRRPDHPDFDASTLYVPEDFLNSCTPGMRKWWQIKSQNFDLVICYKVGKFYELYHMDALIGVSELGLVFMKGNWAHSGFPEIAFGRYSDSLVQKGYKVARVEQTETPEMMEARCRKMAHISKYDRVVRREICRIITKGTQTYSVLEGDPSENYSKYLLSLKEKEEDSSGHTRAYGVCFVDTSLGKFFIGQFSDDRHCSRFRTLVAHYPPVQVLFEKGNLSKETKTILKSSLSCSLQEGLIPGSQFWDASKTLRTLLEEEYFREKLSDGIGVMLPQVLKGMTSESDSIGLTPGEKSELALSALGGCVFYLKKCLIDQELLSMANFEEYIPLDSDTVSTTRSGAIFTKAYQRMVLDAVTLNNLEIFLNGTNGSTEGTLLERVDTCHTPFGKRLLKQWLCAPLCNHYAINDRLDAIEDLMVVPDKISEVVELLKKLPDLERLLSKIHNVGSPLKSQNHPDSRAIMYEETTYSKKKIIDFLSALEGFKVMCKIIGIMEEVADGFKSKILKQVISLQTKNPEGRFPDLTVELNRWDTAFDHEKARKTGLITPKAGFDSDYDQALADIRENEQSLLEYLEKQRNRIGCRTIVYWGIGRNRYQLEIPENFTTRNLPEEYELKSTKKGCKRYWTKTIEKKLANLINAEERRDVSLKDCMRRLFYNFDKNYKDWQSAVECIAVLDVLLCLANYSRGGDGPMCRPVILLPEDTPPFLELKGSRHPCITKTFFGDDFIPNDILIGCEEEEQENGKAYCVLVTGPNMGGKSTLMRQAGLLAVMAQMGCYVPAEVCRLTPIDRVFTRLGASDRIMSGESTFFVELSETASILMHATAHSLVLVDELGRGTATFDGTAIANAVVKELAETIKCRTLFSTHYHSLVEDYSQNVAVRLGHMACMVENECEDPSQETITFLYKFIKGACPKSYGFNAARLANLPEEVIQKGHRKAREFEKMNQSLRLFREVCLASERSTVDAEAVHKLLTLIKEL

Measured: binding

B1: 抗MSH6蛋白单克隆抗体 (secreted by mouse hybridoma cell line AbM58060-20A2-PU, CGMCC NO.17492) (antibody, V domains shown)
VH: EVKLQESGPSLVKPGASVKISCKASGYKFSYSWMNWVKQRPGKGLEWIGWIYPAQDVTNYNGKFRDKATLTADISSSTAYMQLSGLTSEDSAVYFCVYHGGFLDFWGQGTTLTVSS
VL: DILMTQSPLSLSVTIGQPASISCKSSQSLLFSDGKTYLNWLQQRPGQSPKRLMYQVSRLDPGIPDRFSGSGSETDFTLKISRVEADDLAIYYCSQGSFYPQTFGGGTRLEIK
binds: all assays above
